Measured values: publication PMC4314728
Results are given in words; binding and its absence hold for the method and conditions named. In cells and extracts the contact can be indirect. Some entries that bind do so weakly or less than the wild type. Each block holds one binder with its values, some of them ahead of it.

Protein sequences, listed by entry. Tags and fused reporters are not part of them. Residues count along the entry.
UniProt P41231: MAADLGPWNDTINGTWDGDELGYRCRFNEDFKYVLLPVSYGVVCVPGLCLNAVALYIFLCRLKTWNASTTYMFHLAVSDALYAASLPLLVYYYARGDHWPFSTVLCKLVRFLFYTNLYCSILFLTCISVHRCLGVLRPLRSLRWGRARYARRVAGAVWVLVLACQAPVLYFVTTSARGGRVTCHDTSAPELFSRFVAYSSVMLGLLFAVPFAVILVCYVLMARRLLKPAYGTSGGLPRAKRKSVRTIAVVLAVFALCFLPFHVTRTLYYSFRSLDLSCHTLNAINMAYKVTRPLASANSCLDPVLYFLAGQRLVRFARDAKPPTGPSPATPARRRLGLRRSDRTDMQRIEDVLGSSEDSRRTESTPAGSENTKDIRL
UniProt P35968, residues 20-1356: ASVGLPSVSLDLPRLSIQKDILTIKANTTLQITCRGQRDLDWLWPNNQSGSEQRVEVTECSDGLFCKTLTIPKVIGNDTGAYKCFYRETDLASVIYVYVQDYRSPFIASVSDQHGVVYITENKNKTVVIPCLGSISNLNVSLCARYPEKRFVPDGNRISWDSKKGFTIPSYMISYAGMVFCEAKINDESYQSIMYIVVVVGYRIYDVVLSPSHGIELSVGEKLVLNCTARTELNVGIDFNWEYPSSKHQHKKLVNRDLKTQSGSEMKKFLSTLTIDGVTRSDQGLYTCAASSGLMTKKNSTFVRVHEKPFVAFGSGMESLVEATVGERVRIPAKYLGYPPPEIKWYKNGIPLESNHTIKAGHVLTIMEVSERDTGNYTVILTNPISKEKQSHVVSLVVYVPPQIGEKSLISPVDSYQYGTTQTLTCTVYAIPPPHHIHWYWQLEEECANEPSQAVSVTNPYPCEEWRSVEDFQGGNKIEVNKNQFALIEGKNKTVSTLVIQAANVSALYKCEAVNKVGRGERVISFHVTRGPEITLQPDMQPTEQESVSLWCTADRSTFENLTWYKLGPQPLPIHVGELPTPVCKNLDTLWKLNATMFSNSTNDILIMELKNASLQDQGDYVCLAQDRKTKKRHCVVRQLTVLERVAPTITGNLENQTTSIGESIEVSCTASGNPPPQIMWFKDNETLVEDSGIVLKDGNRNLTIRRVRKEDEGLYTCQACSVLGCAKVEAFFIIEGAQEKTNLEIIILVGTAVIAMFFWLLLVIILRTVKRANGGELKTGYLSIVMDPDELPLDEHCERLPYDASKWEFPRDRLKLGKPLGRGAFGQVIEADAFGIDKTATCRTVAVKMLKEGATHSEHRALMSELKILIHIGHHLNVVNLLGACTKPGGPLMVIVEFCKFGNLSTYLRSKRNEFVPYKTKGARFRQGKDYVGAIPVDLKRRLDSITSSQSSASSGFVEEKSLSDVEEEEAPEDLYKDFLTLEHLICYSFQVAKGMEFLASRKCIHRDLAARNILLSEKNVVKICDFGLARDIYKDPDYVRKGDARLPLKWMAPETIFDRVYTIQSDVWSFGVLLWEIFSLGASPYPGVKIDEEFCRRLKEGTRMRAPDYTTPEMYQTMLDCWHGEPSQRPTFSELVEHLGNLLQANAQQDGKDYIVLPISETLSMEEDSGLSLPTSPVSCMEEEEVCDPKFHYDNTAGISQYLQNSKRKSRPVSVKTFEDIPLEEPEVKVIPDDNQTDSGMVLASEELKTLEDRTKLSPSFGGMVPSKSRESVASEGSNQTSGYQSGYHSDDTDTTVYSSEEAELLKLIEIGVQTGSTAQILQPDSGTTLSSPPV

Assays:
[1] = target: T1, vav2 (guanine nucleotide exchange factor for Rac), endogenous in HCAECs (human (endogenous in HCAECs)) (UniProt P52735); experiment: co-IP; HCAECs, 100 µM UTP for the indicated times, also after 1 µM PP2 or 10 µM SU1498 for 30 min; lysate IP with anti-vav2 antibody, IB with anti-p120 catenin; endogenous proteins
T1 sequence: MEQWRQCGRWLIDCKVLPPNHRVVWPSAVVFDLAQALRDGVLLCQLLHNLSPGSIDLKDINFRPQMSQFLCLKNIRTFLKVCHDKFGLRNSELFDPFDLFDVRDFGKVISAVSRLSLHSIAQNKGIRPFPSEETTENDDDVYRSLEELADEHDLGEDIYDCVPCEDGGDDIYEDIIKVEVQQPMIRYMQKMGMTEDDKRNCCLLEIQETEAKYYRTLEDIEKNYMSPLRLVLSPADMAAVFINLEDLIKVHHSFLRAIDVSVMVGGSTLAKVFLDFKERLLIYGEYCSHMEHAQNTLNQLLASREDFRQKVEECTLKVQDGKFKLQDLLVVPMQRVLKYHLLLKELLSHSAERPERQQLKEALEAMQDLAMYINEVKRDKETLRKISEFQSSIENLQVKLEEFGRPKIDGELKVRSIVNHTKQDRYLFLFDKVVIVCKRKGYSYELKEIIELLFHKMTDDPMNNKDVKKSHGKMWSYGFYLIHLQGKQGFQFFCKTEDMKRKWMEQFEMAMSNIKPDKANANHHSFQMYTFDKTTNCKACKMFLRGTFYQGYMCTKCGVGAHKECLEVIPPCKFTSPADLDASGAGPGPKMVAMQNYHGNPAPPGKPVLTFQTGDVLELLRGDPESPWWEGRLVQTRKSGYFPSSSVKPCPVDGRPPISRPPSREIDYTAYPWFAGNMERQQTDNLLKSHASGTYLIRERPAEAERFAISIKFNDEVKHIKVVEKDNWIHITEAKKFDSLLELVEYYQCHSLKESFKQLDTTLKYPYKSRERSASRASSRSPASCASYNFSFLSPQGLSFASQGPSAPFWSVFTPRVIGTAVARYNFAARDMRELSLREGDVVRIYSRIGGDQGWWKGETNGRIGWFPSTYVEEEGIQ

[2] = target: HA-tagged human P2Y2 nucleotide receptor, transiently expressed in HCAECs (human) (UniProt P41231); experiment: co-IP; HCAECs expressing HA-hP2Y2R, 100 µM UTP for 5 min; lysate IP with mouse anti-HA agarose beads, IB with anti-VE-cadherin
[3] = target: VEGF receptor-2 (VEGFR-2), endogenous in HCAECs (human (endogenous in HCAECs)) (UniProt P35968); experiment: co-IP; HCAECs, 100 µM UTP for the indicated time; lysate IP with anti-VEGFR-2 antibody, IB with anti-VE-cadherin; endogenous proteins
[4] = target: HA-tagged human P2Y2 nucleotide receptor, transiently expressed in HCAECs (human) (UniProt P41231); experiment: condition: only 10 min after the 5 min of exposure to 100 µM UTP; co-IP; as a1, but later time point of the UTP time course (10 min after the 5 min point); IP anti-HA agarose, IB anti-VE-cadherin
[5] = target: HA-tagged human P2Y2 nucleotide receptor, transiently expressed in HCAECs (human) (UniProt P41231); experiment: condition: only pretreatment with 1 µM PP2 or 10 µM SU1498 for 30 min; co-IP; HCAECs expressing HA-hP2Y2R, pretreated with 1 µM PP2 (Src inhibitor) or 10 µM SU1498 (VEGFR-2 inhibitor) for 30 min, then 100 µM UTP for 5 min; IP anti-HA matrix beads, IB anti-VE-cadherin

binding [1]: binds
B1: p120 catenin, endogenous in HCAECs (protein, UniProt O60716 1-968)
chain: MDDSEVESTASILASVKEQEAQFEKLTRALEEERRHVSAQLERVRVSPQDANPLMANGTLTRRHQNGRFVGDADLERQKFSDLKLNGPQDHSHLLYSTIPRMQEPGQIVETYTEEDPEGAMSVVSVETSDDGTTRRTETTVKKVVKTVTTRTVQPVAMGPDGLPVDASSVSNNYIQTLGRDFRKNGNGGPGPYVGQAGTATLPRNFHYPPDGYSRHYEDGYPGGSDNYGSLSRVTRIEERYRPSMEGYRAPSRQDVYGPQPQVRVGGSSVDLHRFHPEPYGLEDDQRSMGYDDLDYGMMSDYGTARRTGTPSDPRRRLRSYEDMIGEEVPSDQYYWAPLAQHERGSLASLDSLRKGGPPPPNWRQPELPEVIAMLGFRLDAVKSNAAAYLQHLCYRNDKVKTDVRKLKGIPVLVGLLDHPKKEVHLGACGALKNISFGRDQDNKIAIKNCDGVPALVRLLRKARDMDLTEVITGTLWNLSSHDSIKMEIVDHALHALTDEVIIPHSGWEREPNEDCKPRHIEWESVLTNTAGCLRNVSSERSEARRKLRECDGLVDALIFIVQAEIGQKDSDSKLVENCVCLLRNLSYQVHREIPQAERYQEAAPNVANNTGPHAASCFGAKKGKDEWFSRGKKPIEDPANDTVDFPKRTSPARGYELLFQPEVVRIYISLLKESKTPAILEASAGAIQNLCAGRWTYGRYIRSALRQEKALSAIADLLTNEHERVVKAASGALRNLAVDARNKELIGKHAIPNLVKNLPGGQQNSSWNFSEDTVISILNTINEVIAENLEAAKKLRETQGIEKLVLINKSGNRSEKEVRAAALVLQTIWGYKELRKPLEKEGWKKSDFQVNLNNASRSQSSHSYDDSTLPLIDRNQKSDKKPDREEIQMSNMGSNTKSLDNNYSTPNERGDHNRTLDRSGDLGDMEPLKGTTPLMQDEGQESLEEELDVLVLDDEGGQVSYPSMQKI

binding [2]: binds | binding [3]: binds | binding [4]: no binding | binding [5]: no binding
B2: Vascular endothelial cadherin (VE-cadherin), endogenous in HCAECs (protein, UniProt P33151 48-784)
chain: DWIWNQMHIDEEKNTSLPHHVGKIKSSVSRKNAKYLLKGEYVGKVFRVDAETGDVFAIERLDRENISEYHLTAVIVDKDTGENLETPSSFTIKVHDVNDNWPVFTHRLFNASVPESSAVGTSVISVTAVDADDPTVGDHASVMYQILKGKEYFAIDNSGRIITITKSLDREKQARYEIVVEARDAQGLRGDSGTATVLVTLQDINDNFPFFTQTKYTFVVPEDTRVGTSVGSLFVEDPDEPQNRMTKYSILRGDYQDAFTIETNPAHNEGIIKPMKPLDYEYIQQYSFIVEATDPTIDLRYMSPPAGNRAQVIINITDVDEPPIFQQPFYHFQLKENQKKPLIGTVLAMDPDAARHSIGYSIRRTSDKGQFFRVTKKGDIYNEKELDREVYPWYNLTVEAKELDSTGTPTGKESIVQVHIEVLDENDNAPEFAKPYQPKVCENAVHGQLVLQISAIDKDITPRNVKFKFILNTENNFTLTDNHDNTANITVKYGQFDREHTKVHFLPVVISDNGMPSRTGTSTLTVAVCKCNEQGEFTFCEDMAAQVGVSIQAVVAILLCILTITVITLLIFLRRRLRKQARAHGKSVPEIHEQLVTYDEEGGGEMDTTSYDVSVLNSVRRGGAKPPRPALDARPSLYAQVQKPPRHAPGAHGGPGEMAAMIEVKKDEADHDGDGPPYDTLHIYGYEGSESIAESLSSLGTDSSDSDVDYDFLNDWGPRFKMLAELYGSDPREELLY
